One assay deals with STK24 (UniProt Q9Y6E0). Nature of the assay: co-IP; HEK293T cells expressing the proteins; anti-Flag immunoprecipitation and immunoblot (Figure 5E); co-IP with AKT1, AKT2 and AKT3 in HEK293T cells (Figure S5L). (Immunoblotting shows a protein as a band on a membrane.)
For a further assay, the target named is HA‐AKT1 (UniProt P31749). The assay is described as follows: pull-down; 1 µg HA-AKT1 (or HA-EGFP) with 2 µL pre-cleared HA beads in 500 µL reaction medium, then 1 µg Flag-STK24 recombinant protein, 4 °C for 4 h with gentle rotation; immunoblot with anti-HA or anti-Flag; both purified.

Sequences of proteins named here, by UniProt entry; tags and fusion partners are left off. A change or cut given only in a name is not applied to a line headed by its entry. A line that says so, or that is headed by a name, gives the form on record, which may keep a tag or linker.
STK24 (Q9Y6E0-2, form named): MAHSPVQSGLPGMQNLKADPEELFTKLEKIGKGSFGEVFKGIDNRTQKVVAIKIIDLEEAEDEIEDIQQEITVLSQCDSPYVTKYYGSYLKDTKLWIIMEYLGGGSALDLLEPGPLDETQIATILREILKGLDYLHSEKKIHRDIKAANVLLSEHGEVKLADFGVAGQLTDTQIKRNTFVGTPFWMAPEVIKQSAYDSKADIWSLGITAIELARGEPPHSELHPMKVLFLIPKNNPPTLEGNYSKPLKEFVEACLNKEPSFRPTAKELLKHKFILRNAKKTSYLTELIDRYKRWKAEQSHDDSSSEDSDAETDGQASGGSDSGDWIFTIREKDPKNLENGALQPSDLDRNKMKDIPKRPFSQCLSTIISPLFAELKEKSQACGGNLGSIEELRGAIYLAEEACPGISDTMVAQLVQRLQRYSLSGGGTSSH
UniProt P31749: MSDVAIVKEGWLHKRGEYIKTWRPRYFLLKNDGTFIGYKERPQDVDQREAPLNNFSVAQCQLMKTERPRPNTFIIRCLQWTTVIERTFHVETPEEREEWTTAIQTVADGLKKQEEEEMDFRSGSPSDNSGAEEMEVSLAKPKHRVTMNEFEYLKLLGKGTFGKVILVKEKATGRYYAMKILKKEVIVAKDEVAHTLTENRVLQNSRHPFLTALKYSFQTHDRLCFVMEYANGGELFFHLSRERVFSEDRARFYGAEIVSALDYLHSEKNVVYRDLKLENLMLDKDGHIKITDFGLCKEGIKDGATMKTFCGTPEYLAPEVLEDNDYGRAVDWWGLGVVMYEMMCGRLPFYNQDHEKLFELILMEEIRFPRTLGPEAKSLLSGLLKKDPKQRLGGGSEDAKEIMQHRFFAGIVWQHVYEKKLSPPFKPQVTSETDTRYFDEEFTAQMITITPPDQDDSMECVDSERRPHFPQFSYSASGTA
UniProt P31751: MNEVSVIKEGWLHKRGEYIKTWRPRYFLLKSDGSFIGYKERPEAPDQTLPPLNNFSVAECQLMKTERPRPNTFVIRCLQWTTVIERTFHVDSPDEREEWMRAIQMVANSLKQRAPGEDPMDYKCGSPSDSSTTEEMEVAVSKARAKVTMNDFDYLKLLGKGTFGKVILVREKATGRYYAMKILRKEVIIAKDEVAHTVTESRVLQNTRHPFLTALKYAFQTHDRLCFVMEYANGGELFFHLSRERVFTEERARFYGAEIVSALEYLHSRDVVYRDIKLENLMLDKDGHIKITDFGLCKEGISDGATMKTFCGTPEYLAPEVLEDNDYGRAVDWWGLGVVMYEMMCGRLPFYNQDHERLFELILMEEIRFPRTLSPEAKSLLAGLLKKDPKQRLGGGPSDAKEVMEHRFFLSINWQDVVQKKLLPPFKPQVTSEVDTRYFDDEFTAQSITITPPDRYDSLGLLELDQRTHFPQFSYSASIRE
UniProt Q9Y243: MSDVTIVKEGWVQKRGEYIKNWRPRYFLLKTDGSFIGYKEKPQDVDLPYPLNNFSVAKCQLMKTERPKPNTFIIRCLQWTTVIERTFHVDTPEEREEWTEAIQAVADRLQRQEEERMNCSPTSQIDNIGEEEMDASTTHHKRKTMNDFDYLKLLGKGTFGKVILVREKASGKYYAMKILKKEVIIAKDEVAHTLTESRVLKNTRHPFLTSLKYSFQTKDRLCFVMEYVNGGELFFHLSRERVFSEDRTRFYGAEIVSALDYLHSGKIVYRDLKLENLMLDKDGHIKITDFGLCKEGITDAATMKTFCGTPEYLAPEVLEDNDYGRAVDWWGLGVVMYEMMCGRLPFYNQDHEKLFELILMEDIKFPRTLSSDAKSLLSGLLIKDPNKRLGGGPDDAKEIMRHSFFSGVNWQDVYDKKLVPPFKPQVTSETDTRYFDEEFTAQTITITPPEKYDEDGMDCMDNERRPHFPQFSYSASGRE

These are yes or no findings as the source states them, for the method shown. For some assays here: In cells and extracts the contact can be indirect. Some results given as binding are weak or reduced against the parent protein; the word gives no strength.

With “AKT1 (from UniProt P31749 1-480) (enzyme)”, the binding entry in the assay with STK24 is “binds”.
Consider “AKT2 (from UniProt P31751 1-481) (enzyme)”, for which, in the assay with STK24, the binding result was “binds weakly”.
Still for that read-out and setting: the entry for “AKT3 (from UniProt Q9Y243 1-479) (enzyme)” is “no binding”.
“Flag‐STK24 recombinant protein (from UniProt Q9Y6E0-2 1-431) (enzyme)”: in the assay with HA‐AKT1, the binding result is given as “binds”.

B1: TAK1 (enzyme, UniProt O43318 1-606)
chain: MSTASAASSSSSSSAGEMIEAPSQVLNFEEIDYKEIEVEEVVGRGAFGVVCKAKWRAKDVAIKQIESESERKAFIVELRQLSRVNHPNIVKLYGACLNPVCLVMEYAEGGSLYNVLHGAEPLPYYTAAHAMSWCLQCSQGVAYLHSMQPKALIHRDLKPPNLLLVAGGTVLKICDFGTACDIQTHMTNNKGSAAWMAPEVFEGSNYSEKCDVFSWGIILWEVITRRKPFDEIGGPAFRIMWAVHNGTRPPLIKNLPKPIESLMTRCWSKDPSQRPSMEEIVKIMTHLMRYFPGADEPLQYPCQYSDEGQSNSATSTGSFMDIASTNTSNKSDTNMEQVPATNDTIKRLESKLLKNQAKQQSESGRLSLGASRGSSVESLPPTSEGKRMSADMSEIEARIAATTAYSKPKRGHRKTASFGNILDVPEIVISGNGQPRRRSIQDLTVTGTEPGQVSSRSSSPSVRMITTSGPTSEKPTRSHPWTPDDSTDTNGSDNSIPMAYLTLDHQLQPLAPCPNSKESMAVFEQHCKMAQEYMKVQTEIALLLQRKQELVAELDQDEKDQQNTSRLVQEHKKLLDENKSLSTYYQQCKKQLEVIRSQQQKRQGTS
Consider B1, for which the binding result in the assay with STK24 is recorded as “binds”.

These data come from publication PMC10966517.
